Test results as given in paper PMC12040169 (PLOS Biology, 2025).
The other results are listed elsewhere or left out.

These molecules were tested on T1, CTL2-GFP (C. trachomatis L2/434/Bu, GFP-expressing). Settings: bulk GFP, single well; 28.5 h, 10 µM; inhibitor.
T1 construct: L2/434/Bu, GFP-expressing
Set-up: species or system HeLa; Intracellular C. trachomatis growth in HeLa cells, bulk GFP fluorescence relative to DMSO

SMILES | % of control remaining [%]
O=C(O)CNC(=O)/C(=C/c1ccc(Br)cc1)NC(=O)c1ccc(Br)o1 [CBK262537] | 100
Nc1ccc(Cc2ccc(N)c(O)c2)cc1O [CBK261149] | 107.161
N#C/C(=C/c1ccc(-c2cc(C(=O)O)cc(C(=O)O)c2)o1)c1nc2ccccc2s1 [CBK266754] | 227.728
CCOC(=O)c1cccc(-n2ncc(-c3ccc(F)cc3)n2)c1 [CBK112908] | 122.493
COc1ccccc1-c1cc(Nc2ccc(NS(=O)(=O)c3ccc(C)cc3)cc2)ncn1 [CBK037819] | 105.415
CC(=O)NC[C@H]1CN(c2ccc3c(c2)CCN(C(=O)Cc2ccccc2)CC3)C(=O)O1 [CBK018499] | 0
Cc1nnc(C(C)Sc2nnc(N3CCC(C)CC3)n2Cc2ccco2)o1 (stereo not shown) [CBK298311] | 133.633
COc1ccc(C2(C(=O)NCCN3CCCC3)CC2)cc1 [CBK149824] | 105.096
CCCC/C=C/c1cncc(N2CCN(C(=O)c3ccco3)CC2)n1 [CBK037918] | 158.734
CC(=O)N1CCCC1C(=O)N1CC(C(=O)Nc2nc3c(C)cc(C)cc3s2)C1 (stereo not shown) [CBK286039] | 126.107
CCOC(=O)C1=C(Nc2ccc([N+](=O)[O-])cc2)S/C(=C\c2ccc(O)c(OC)c2)C1=O [CBK263873] | 128.881
O=C(CSc1nnc(-c2ccncc2)n1-c1ccccc1)N1CCN(Cc2ccccc2)CC1 [CBK267240] | 145.678
O=C(COc1ccc(S(=O)(=O)NC2CCCCC2)cc1)Nc1cccc2ccccc12 [CBK266023] | 99.6171
COc1ccc(Br)cc1S(=O)(=O)NCCCN1CCOCC1 [CBK264050] | 128.116
Cc1ccc2nc(C(=O)O)cc(C(=O)O)c2c1 [CBK261174] | 109.337
O=C(CNC(=O)c1cccc(F)c1)N/N=C1/C(=O)N(Cc2ccc3c(c2)OCO3)c2ccccc21 [CBK263519] | 85.9618
COc1ccc(C(=O)N2CCC3(CCCN(C(=O)Cc4ccc(Cl)c(Cl)c4)C3)C2)cc1OC (stereo not shown) [CBK131654] | 111.237
CCC(Sc1nnc2c3ccccc3n(C)c2n1)C(=O)Nc1sc2c(c1C#N)CCCC2 (stereo not shown) [CBK263031] | 109.622
Sc1nnc(COc2ccc(-c3ccccc3)cc2)n1-c1ccccc1 [CBK264964] | 100
CCCCc1cc(=O)oc2cc(OC(C)C(=O)O)c(Cl)cc12 (stereo not shown) [CBK265166] | 100
CO[C@]1(c2ccc(Cl)cc2)CC[C@H](NCCCC(=O)c2ccc(F)cc2)CC1 [CBK015959C] | 106.043
CS(=O)(=O)Nc1cc(-c2noc([C@@H]3CCCN3C3CCOCC3)n2)ccn1 [CBK288887] | 128.55
CN(C(=O)CN1CCOC(Cn2cccn2)C1)C1(C#N)CCCCC1 (stereo not shown) [CBK305335] | 129.87
O=C(N/N=C/c1cccnc1)C1CCCN(S(=O)(=O)c2ccccc2)C1 (stereo not shown) [CBK262712] | 128.52
COc1ccc(C=CC(=O)N(C)c2ccccc2C(=O)O)cc1 [CBK296135] | 94.5269
CCc1c(C)nc(N)nc1N1N=C1SC(C(C)=O)C(C)=O [CBK268558] | 85.6049
CC(=O)NCCn1cc2c(n1)[C@H]1CN(C(=O)C3CCC3)C[C@H]1CC2 [CBK284584] | 103.343

SMILES | % of control remaining [%]
COc1ccc(OC)c(NS(=O)(=O)N(C)C)c1 [CBK005362] | 102.125
COc1cc(/C=N/NC(=O)CCNc2n[nH]c(=O)[nH]c2=O)cc(Br)c1O [CBK263494] | 100
O=S(=O)(/N=C/N1CCCC1)c1ccccc1 [CBK023272] | 99.2624
O=C(NCc1ccc(Cl)cc1)c1cnc2ccc(C#CCO)cc2c1O [CBK017979] | 90.8572
O=C(NCc1ccccc1)C(=O)NNC(=O)C12CC3CC(CC(C3)C1)C2 [CBK262951] | 131.804
O=C(Nc1ccc2c(c1)OCO2)c1cccc(I)c1 [CBK058308] | 119.322
CC1CN(CC(=O)NC(C)(C)c2ccccc2)CC(C)N1 (stereo not shown) [CBK051693] | 115.719
Cc1cnc2[nH]c(C(F)(F)F)c(CN3CCOCC3)c2c1 [CBK284766] | 166.032
O=c1cc(O)c2ccccc2n1Cc1ccccc1F [CBK291162] | 133.904
CC(C)(O)c1cn(C2CN(C(=O)c3sccc3-c3ccccc3)C2)nn1 [CBK305442] | 121.389
CCCN1CCC(CNC(=O)c2cc3c(OC)cccc3n2C)CC1 [CBK283255] | 143.737
O=C(Nc1ccc(N2CCN(C(=O)c3ccco3)CC2)cc1)c1cccnc1 [CBK270034] | 88.5309
CC(=O)Nc1ccc(F)c(NC(=O)NCCN2CCCOC2=O)c1 [CBK307166] | 114.159
CCOc1cc(NC(=O)N2CCC(Cc3cnn(C)c3)C2)ccc1C (stereo not shown) [CBK305295] | 142.229
CN(Cc1nnc(-c2ccc(C(C)(C)C)cc2)o1)C(=O)C1CCCO1 (stereo not shown) [CBK307597] | 122.841
Cc1nc2ccc(C(=O)NCCCc3ccccn3)cc2s1 [CBK282478] | 129.357
CCNc1ccn([C@H]2C[C@@H](O)[C@@H](CO)O2)c(=O)n1 [CBK201311] | 117.967
COc1cccc(/C=C\c2[nH]c(=O)[nH]c(=O)c2[N+](=O)[O-])c1OCC(=O)O [CBK266822] | 198.954
Nc1nc(N)c(Cc2ccc(Cl)cc2Cl)c(N)n1 [CBK009425] | 124.001
FC(F)(F)c1ccc(OCc2ccc(Cl)c(Cl)c2)nc1 [CBK115831] | 219.985
Clc1cccc(-c2cn3ccnc3c(NCc3cccnc3)n2)c1 [CBK066237] | 91.5236
C=CCOc1ccc2ccccc2c1CNc1nc[nH]n1 [CBK267296] | 149.023
CC(=O)N1CC[C@H]2NC(=O)CNC(=O)C3(CCCC[C@H]2C1)CCN(C(=O)CC1CCOCC1)CC3 [CBK292030] | 103.753
CC12CCC(C(=O)Nc3ccccc3)(OC1=O)C2(C)C (stereo not shown) [CBK018129] | 64.6221
CNCc1cc(Br)ccc1OC [CBK027857] | 117.556
COc1ccc(C(C)C)cc1-c1cncc(NCc2ccc3c(c2)OCO3)n1 [CBK065348] | 106.004
N#CCSc1nnc(NC(=O)Nc2ccccc2)s1 [CBK028792] | 140.128

SMILES | % of control remaining [%]
Cc1nnc(SCC(=O)Nc2ccc(CN3CCOCC3)cc2)n1C [CBK306092] | 66.288
O=c1ccc2ccc(-c3ccc(OC(F)(F)F)cc3)nc2[nH]1 [CBK073720] | 64.0203
Cc1ccc2nc(COC(=O)c3ccc(Cn4nnc5ccccc54)cc3)cn2c1 [CBK297923] | 129.275
O=C(Nc1ccc2[nH]ccc2c1)c1ccccc1Nc1cccc(C(F)(F)F)c1 [CBK149583] | 49.8008
CNc1nc(NC(C#N)c2ccccc2)ncc1N (stereo not shown) [CBK174783] | 161.505
CC1CCCC(C)N1S(=O)(=O)c1ccc(NS(=O)(=O)c2cccc(C(=O)O)c2)cc1 (stereo not shown) [CBK296944] | 129.547
O=S(=O)(Nc1cc(F)cc(C(F)(F)F)c1)c1cc2c(N3CCNCC3)nccc2s1 [CBK038102C] | 139.731
CN1CCN(CC(O)COCc2ccc3c(c2)OCO3)CC1 (stereo not shown) [CBK278260C] | 100
O=C(C1CCCO1)N1CCCC(c2cc3cccnc3[nH]2)C1 (stereo not shown) [CBK284978] | 94.412
CN(C)C(=O)Cn1nc(-c2cc3c(s2)CCCC3)oc1=O [CBK283905] | 131.848
COc1cccc(C(=O)N2CCCC2c2cc3cccnc3[nH]2)c1 (stereo not shown) [CBK285082] | 127.534
O=C(COC(=O)c1cc(O)nc2ccccc12)c1ccccc1Cl [CBK265524] | 100
COc1ccc(NC(=O)CSc2nc3c(c(-c4cccs4)c2C#N)CN(C)CC3)cc1OC [CBK267444] | 110.491
CC(C)(C)OC(=O)N1CCC(c2cc(=O)n3c(n2)CCCCC3)C1 (stereo not shown) [CBK283415] | 109.113
O=C(CSc1nc2ccccc2[nH]1)c1ccc2ccccc2c1 [CBK261739] | 99.152
COc1cc(CCc2cc(O)n3nc(-c4cccc(C)c4)c(C)c3n2)on1 [CBK285691] | 155.815
CC(C)(CN1CCOCC1)NC(=O)c1cnc2cc(C(F)(F)F)ccc2c1O [CBK107429] | 109.711
COc1ccccc1CCC(=O)Nc1cnc(-c2ccc(F)cc2)c(-c2ccco2)n1 [CBK037002] | 129.29
CCC(NC(=O)Cc1c(C)nc(SC)[nH]c1=O)c1ccc(F)cc1 (stereo not shown) [CBK282653] | 112.193
COc1ccc(-n2nc3cc(C)c(NC(=S)NC(=O)/C=C/c4ccco4)cc3n2)cc1 [CBK264359] | 100
O=C(NCC1CCCO1)NC(=O)c1nsc2ccccc12 (stereo not shown) [CBK019827] | 87.9353
O=C(Nc1ccccc1)N(O)CC(O)COc1ccccc1 (stereo not shown) [CBK288399] | 148.577
CCOC(=O)CNC(=O)N1CCCC1c1nc(-c2ccccc2)c2ccccn12 (stereo not shown) [CBK046502] | 100.225
Cc1c(C2CC(C(F)(F)F)n3nccc3N2)cnn1C (stereo not shown) [CBK288015] | 104.218
COc1ccc(CCN2C(=O)CC(C(=O)O)S/C2=N\c2ccccc2)cc1 (stereo not shown) [CBK286606] | 121.174

Looked up by structure from above:
SMILES | % of control remaining [%]
Cc1nnc(C(C)Sc2nnc(N3CCC(C)CC3)n2Cc2ccco2)o1 (stereo not shown) [CBK298311] | 133.633
CC(=O)N1CCCC1C(=O)N1CC(C(=O)Nc2nc3c(C)cc(C)cc3s2)C1 (stereo not shown) [CBK286039] | 126.107
